The target of one test is FLAG-tagged macroH2A1.2 (UniProt O75367). Briefly: co-IP; anti-FLAG M2 magnetic beads, 4 °C 60 min, on MNase-digested nuclear lysates of parental or FLAG-macroH2A1.1/1.2 HEK293 T-REx cells; with or without CPT (1 µM, 30 min) and PARPi Olaparib (10 µM); washes with 150 mM KCl, 0.1% NP-40; western blot.
Test [1] has as its target FLAG-tagged macroH2A1.1 (UniProt O75367). Described as above.
The target is the same in test [2]. Briefly: co-IP; Co-IP of XRCC1 with FLAG-macroH2A1.1, wild type or PAR-binding-domain mutant, with or without CPT and PARP inhibition (Supplementary Fig. 4f); cells not given.

Chains of the proteins cited; added tags and fusions are not shown. Lines headed by an entry give the natural chain unless they say otherwise; changes in a name come on top. A line that says so, or that is headed by a name, gives the form on record, which may keep a tag or linker.
UniProt O75367: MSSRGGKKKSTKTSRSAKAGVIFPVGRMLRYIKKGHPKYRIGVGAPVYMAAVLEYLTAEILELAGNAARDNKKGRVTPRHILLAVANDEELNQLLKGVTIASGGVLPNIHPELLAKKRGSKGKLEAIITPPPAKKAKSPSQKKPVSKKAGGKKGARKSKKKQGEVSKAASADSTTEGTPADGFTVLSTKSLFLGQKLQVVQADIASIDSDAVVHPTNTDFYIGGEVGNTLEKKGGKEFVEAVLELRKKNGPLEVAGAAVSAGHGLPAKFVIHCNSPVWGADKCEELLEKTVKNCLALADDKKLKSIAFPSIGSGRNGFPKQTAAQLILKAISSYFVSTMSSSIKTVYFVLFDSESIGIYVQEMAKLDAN
FLAG-tagged macroH2A1.2 (O75367, form named): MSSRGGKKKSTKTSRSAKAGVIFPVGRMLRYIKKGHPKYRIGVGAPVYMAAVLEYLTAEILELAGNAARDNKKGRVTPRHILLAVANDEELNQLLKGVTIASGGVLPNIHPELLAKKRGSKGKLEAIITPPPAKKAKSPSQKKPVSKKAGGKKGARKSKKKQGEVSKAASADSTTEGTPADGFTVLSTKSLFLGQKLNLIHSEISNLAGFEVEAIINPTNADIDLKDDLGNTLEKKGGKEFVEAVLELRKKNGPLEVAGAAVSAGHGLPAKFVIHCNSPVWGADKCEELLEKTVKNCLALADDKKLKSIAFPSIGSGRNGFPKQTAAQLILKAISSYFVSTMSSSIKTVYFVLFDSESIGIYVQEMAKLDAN
UniProt P11387: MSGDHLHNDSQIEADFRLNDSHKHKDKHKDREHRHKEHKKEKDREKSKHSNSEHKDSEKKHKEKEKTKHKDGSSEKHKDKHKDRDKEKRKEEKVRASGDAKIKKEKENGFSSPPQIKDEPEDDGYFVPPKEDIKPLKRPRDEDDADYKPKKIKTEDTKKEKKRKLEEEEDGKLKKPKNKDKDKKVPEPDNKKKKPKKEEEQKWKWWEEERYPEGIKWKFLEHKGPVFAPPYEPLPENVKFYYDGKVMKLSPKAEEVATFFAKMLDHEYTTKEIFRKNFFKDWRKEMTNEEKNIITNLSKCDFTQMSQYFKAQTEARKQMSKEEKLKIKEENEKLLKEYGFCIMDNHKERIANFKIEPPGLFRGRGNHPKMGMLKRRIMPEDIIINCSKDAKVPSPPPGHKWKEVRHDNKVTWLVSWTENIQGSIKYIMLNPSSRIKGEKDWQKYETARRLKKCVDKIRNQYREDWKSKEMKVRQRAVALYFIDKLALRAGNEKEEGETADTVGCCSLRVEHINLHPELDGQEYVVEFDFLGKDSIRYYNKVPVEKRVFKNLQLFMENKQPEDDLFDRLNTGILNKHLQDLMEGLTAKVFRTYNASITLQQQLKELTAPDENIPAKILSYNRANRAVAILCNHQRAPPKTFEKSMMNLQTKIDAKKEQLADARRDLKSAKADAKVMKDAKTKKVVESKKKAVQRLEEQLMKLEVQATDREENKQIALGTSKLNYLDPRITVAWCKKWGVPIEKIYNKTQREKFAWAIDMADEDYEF
UniProt P09874: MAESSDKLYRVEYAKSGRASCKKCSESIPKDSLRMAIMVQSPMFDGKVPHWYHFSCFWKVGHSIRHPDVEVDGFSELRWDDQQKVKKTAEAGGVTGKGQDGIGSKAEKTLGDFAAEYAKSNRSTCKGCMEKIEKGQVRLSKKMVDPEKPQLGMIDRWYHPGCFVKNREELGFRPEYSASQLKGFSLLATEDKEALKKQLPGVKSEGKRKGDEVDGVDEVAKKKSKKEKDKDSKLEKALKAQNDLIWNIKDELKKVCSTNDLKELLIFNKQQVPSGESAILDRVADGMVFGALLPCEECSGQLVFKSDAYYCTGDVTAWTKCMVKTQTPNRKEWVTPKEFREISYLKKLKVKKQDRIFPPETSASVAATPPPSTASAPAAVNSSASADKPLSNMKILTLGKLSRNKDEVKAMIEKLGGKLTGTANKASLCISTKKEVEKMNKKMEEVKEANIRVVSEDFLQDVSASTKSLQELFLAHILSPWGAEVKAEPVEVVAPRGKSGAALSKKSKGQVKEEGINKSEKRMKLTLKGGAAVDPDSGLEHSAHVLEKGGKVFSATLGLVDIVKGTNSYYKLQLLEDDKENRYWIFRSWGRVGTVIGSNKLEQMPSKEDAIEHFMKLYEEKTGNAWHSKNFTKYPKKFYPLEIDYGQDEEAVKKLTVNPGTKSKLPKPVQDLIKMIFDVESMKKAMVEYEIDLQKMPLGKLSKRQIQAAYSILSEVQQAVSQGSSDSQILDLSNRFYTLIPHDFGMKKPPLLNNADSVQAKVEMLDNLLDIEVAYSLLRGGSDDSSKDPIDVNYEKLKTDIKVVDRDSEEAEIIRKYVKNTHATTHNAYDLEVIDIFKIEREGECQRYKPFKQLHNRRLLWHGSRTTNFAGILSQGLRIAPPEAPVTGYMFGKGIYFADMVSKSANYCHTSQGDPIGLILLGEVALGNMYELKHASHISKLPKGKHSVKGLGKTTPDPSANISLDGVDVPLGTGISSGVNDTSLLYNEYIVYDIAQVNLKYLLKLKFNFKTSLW
UniProt P18887: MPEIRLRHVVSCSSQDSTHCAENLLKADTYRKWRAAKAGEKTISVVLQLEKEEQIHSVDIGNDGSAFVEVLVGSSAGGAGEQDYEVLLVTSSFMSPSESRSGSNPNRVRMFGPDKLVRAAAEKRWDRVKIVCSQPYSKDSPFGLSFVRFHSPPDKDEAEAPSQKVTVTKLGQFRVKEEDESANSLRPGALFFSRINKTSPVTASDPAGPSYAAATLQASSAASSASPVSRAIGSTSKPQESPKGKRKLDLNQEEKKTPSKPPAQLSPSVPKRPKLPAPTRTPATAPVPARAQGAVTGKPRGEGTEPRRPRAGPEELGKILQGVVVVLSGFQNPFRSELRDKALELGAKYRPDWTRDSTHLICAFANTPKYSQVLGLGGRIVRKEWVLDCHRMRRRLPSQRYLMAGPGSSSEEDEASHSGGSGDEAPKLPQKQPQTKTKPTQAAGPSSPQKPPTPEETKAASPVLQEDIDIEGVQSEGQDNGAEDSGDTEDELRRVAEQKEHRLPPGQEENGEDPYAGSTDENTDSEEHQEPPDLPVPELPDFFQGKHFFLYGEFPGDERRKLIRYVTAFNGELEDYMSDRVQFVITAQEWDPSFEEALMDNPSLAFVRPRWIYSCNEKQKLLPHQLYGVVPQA

These are yes or no findings as the source states them, for the method shown. Binding seen in cells or lysates may run through a third protein. Some entries that bind do so weakly or less than the wild type.

Turning to “DNA topoisomerase 1 (TOP1) (from UniProt P11387 1-765) (enzyme)”, the binding entry is reported as “binds weakly” with FLAG-tagged macroH2A1.2 and “binds” with FLAG-tagged macroH2A1.1 [1].

For “Poly(ADP-ribose) Polymerase 1 (PARP1) (from UniProt P09874 1-1014) (enzyme)”, the binding result with FLAG-tagged macroH2A1.1 [1] is on record as “binds”.

Turning to XRCC1 (from UniProt P18887 1-633), the binding result is reported as “binds weakly” in the test with FLAG-tagged macroH2A1.2, “binds” with FLAG-tagged macroH2A1.1 [1] and “binds” with FLAG-tagged macroH2A1.1 [2].
